In PubChem BioAssay AID602313 (National Center for Advancing Translational Sciences (NCATS), 2012):
In all, about 390,000 compounds went through this assay and about 760 (0.19%) were called active. This list was built around the results that the source calls inconclusive (neither active nor inactive); the mix of calls is not that of the screen. Calls come from the whole dose curve; as a rule, active = well fitted inhibition curve with a large enough effect; inconclusive = small, poorly fitted or top-dose-only effect; inactive = flat fitted curve, though single readings scatter. Potencies of inconclusive entries are doubtful fits and often do not repeat.
Potency is the fitted concentration of half-maximal effect.

Test: qHTS for Inhibitors of Vif-A3F Interactions: qHTS; note: nearly all actives have a fitted effect of over 65% in size
Conditions: HeLa A3F-eYFP + Vif (tagged APOBEC3F with the HIV-1 protein that degrades it), YFP fluorescence increase; series mostly up to 46.1 µM
Outline: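 Fluorescence increase (Ex 488/Em 500-530) after overnight compound treatment at 37 deg C flags inhibition of Vif-driven A3F-eYFP loss in stable HeLa A3F-eYFP/Vif cells seeded overnight beforehand.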
In the case of `O=C(C[C@H]1C[C@H](C(=O)N2CCOCC2)[C@@]2(CCC3CCCC3)c3[nH]c4cc(-c5ccco5)ccc4c3CCN2C1=O)NCc1cccc(C(F)(F)F)c1`, the Potency is reported as “inactive”.
With `COc1cccc(C(=O)c2c[nH]c(C(=O)NCc3cccs3)c2)c1` the Potency was “inactive”.
In the case of `CC1(C)CC(N=c2cc(-c3ccccc3)oc3ccc(Cl)cc23)CC(C)(C)N1`, the Potency is reported as “inactive”.
In the case of `Cc1ccc(NC(=S)Nc2ccccn2)c(C)c1`, the Potency is reported as inconclusive: 7.08 µM [inhibitor, full curve, poor fit].
In the case of `CC(=O)Nc1ccccc1OCc1nnc(-c2ccc(Cl)cc2)o1`, the Potency is reported as inconclusive: 35.5 µM [inhibitor, single point].
In the case of `CC(C)OC(=O)C(C#N)c1nc2ccccc2nc1N1CCN(Cc2ccccc2)CC1` (centres undefined), the Potency is reported as inconclusive: 20 µM [inhibitor, partial curve, poor fit].
For `CCC1Oc2ccc(C)cc2N(CC(=O)N2CCN(c3ccccc3OC)CC2)C1=O` (centres undefined), the Potency was “inactive”.
In the case of `CCNc1nc(NC(C)C)nc(NS(=O)(=O)c2ccc(C)cc2)n1`, the Potency is reported as inconclusive: 35.5 µM [inhibitor, single point].
For `Cc1ccc(C(Sc2ccccc2)C(Cn2cncn2)C(=O)c2ccccc2)cc1` (centres undefined), the Potency was “inactive”.
With `COc1ccc(-c2nc(CN3CCCCC3c3nccn3C)c(C)o2)c(C)c1C` (centres undefined) the Potency was inconclusive: 31.6 µM [inhibitor, single point].
For `CCOC(=O)CCCCN(Cc1ccccc1F)S(=O)(=O)c1ccc(F)c(C(=O)Nc2cc(Cl)cc(Cl)c2)c1`, the Potency was “inactive”.
In the case of `CCOc1ccccc1NC(=O)C(Sc1ccccc1)c1ccccc1` (centres undefined), the Potency is reported as “inactive”.
With `CCCCCC(O)(c1ccc(OCC)cc1)C(CN1CCOCC1)c1ccccc1` (centres undefined) the Potency was inconclusive: 35.5 µM [inhibitor, single point].
With `CCn1c(C)cc2c(c1=O)C(c1ccccc1)C(C(=O)OC)=C(N)O2` (centres undefined) the Potency was “inactive”.
In the case of `Cc1ccc(-c2cc(C(=O)NCCCN3CCOCC3)c3ccccc3n2)cc1C`, the Potency is reported as inconclusive: 0.562 µM [inhibitor, full curve, poor fit].
In the case of `N#Cc1cc2c(nc1SCC(=O)Nc1nccs1)CCCCC2`, the Potency is reported as “inactive”.
With `Cc1c(C(=O)OC2CCCCCC2)[nH]c2c1C(=O)CC(c1ccccc1)C2` (centres undefined) the Potency was inconclusive: 12.6 µM [inhibitor, partial curve, poor fit].
With `CN(Cc1ccccc1)C(=S)NC(=O)C1CCCCC1` the Potency was “inactive”.
With `COc1cc(/C=N/NC(=O)c2[nH]nc3c2CCc2ccccc2-3)ccc1O` the Potency was inconclusive: 35.5 µM [inhibitor, single point].
With `CC(=O)Nc1ccc(NC(=O)C(C)OC(=O)/C(C#N)=C/c2ccc(N(C)C)cc2)cc1` (centres undefined) the Potency was inconclusive: 35.5 µM [inhibitor, single point].
With `C=CCNC(=S)N/N=C/c1cccc([N+](=O)[O-])c1` the Potency was inconclusive: 35.5 µM [inhibitor, single point].
With `O=C(Cn1c(=O)n(Cc2ccccc2)c(=O)c2sc3ccccc3c21)Nc1ccc(F)cc1` the Potency was inconclusive: 11.2 µM [inhibitor, partial curve].
For `C=CCn1c(SCc2nc3sc4c(c3c(=O)[nH]2)CCCC4)nc2ccccc2c1=O`, the Potency was inconclusive: 22.4 µM [inhibitor, partial curve, poor fit].
With `C/C(=N\Nc1ccc(C(=O)c2c(C)cc3ccccn23)cc1[N+](=O)[O-])c1ccc(O)cc1` the Potency was “inactive”.
With `CCOC(=O)c1c(CN2CCN(c3ccccc3)CC2)oc2cc(Br)c(O)cc12` the Potency was inconclusive: 35.5 µM [inhibitor, single point].
In the case of `COc1ccc2c(c1)CCC1C2=NN(/C(C)=C\C(C)=O)C1c1ccc(F)cc1` (centres undefined), the Potency is reported as inconclusive: 35.5 µM [inhibitor, single point].
With `Cc1cc(C)cc(N2C(=O)CC(n3nc(C)cc3C)C2=O)c1` (centres undefined) the Potency was inconclusive: 10 µM [inhibitor, partial curve, poor fit].
For `CCCCNC(=O)COC(=O)c1ccc(N(C)C)cc1`, the Potency was inconclusive: 3.16 µM [inhibitor, partial curve, poor fit].
In the case of `COc1cc2nc(/C=C/c3ccc(N(C)C)cc3)sc2cc1SC`, the Potency is reported as active: 8.91 µM.
With `CCOC(=O)[C@H]1[C@H]2COc3ccccc3[C@@H]2N2C(=O)CN(Cc3ccc(C)cc3)C(=O)[C@@]12C` the Potency was inconclusive: 22.4 µM [inhibitor, single point].
In the case of `COC(=O)c1ccc(Cn2c(O)c(N=NC(N)=S)c3ccccc32)o1`, the Potency is reported as inconclusive: 22.4 µM [inhibitor, single point].
In the case of `NS(=O)(=O)c1ccc(N/N=C/c2ccc(O)c(O)c2O)c([N+](=O)[O-])c1`, the Potency is reported as “inactive”.
For `CC(C)c1ccc(-n2cccc2/C=C2/C(=N)N3C=CSC3=NC2=O)cc1`, the Potency was inconclusive: 17.8 µM [inhibitor, partial curve, poor fit].
With `COC(=O)c1c(C)[nH]c(/C=N/Nc2ccccc2)c1C` the Potency was inconclusive: 35.5 µM [inhibitor, single point].
In the case of `Cc1ccc(C2C3CN(C(C)C)CC=C3C(C#N)=C(N)C2(C#N)C#N)cc1` (centres undefined), the Potency is reported as inconclusive: 35.5 µM [inhibitor, single point].
With `CCOC(=O)CN=C1CC(C)(C)CC2=C1Sc1ncnc(N(C)C)c1N2` the Potency was “inactive”.
In the case of `COc1ccc2c(c1)C1=NN(/C(C)=C/C(C)=O)C(c3cccc(F)c3)C1CC2` (centres undefined), the Potency is reported as inconclusive: 35.5 µM [inhibitor, single point].
With `Cn1nnnc1SC(C(=O)Nc1cccc(C(F)(F)F)c1)c1ccccc1` (centres undefined) the Potency was “inactive”.
With `Cc1ccc(C)c(N2CCN(C(=O)c3cc(S(=O)(=O)N4CCC(C)CC4)cn3C)CC2)c1` the Potency was “inactive”.
In the case of `COc1ccc(O)c(C(=O)c2cnc3c(c2)c(=O)[nH]c(=O)n3C)c1`, the Potency is reported as inconclusive: 15.8 µM [inhibitor, partial curve, poor fit].
For `CN(C(=O)COC(=O)c1ccccc1OCc1ccc(Cl)cc1)c1c(N)n(Cc2ccccc2)c(=O)[nH]c1=O`, the Potency was inconclusive: 35.5 µM [inhibitor, single point].
With `CC(CCc1ccccc1)NC(=O)CN1C(=O)NC2(CCCCC2)C1=O` (centres undefined) the Potency was inconclusive: 35.5 µM [inhibitor, single point].
For `COc1ccc(/C=C2/CSC/C(=C/c3ccc(OC)c(OC)c3)C2=O)cc1OC`, the Potency was inconclusive: 5.01 µM [inhibitor, single point].
In the case of `COc1ccc(NC(=O)c2ccc(C)cc2)c[n+]1[O-]`, the Potency is reported as inconclusive: 3.55 µM [inhibitor, single point].
For `CCOC(=O)C1CCCN(Cc2ccc(OCc3ccccc3)cc2)C1` (centres undefined), the Potency was “inactive”.
For `Cc1cccc(CSCc2ccc(C(=O)NC(C)C)o2)c1`, the Potency was inconclusive: 35.5 µM [inhibitor, single point].
With `COC(=O)c1ccc([C@H]2Nc3ccc(S(=O)(=O)Nc4cccc(C)c4)cc3[C@H]3C=CC[C@H]32)cc1` the Potency was inconclusive: 20 µM [inhibitor, single point].
In the case of `Cc1ccc(S(=O)(=O)N2CCOCC2)cc1NC(=O)CSc1ccccn1`, the Potency is reported as “inactive”.
With `O=[N+]([O-])c1ccc(/C=N/n2cnc3ccccc32)s1` the Potency was inconclusive: 22.4 µM [inhibitor, single point].
With `COc1cc2c(cc1OC)C1(CCCC1)CNC2C` (centres undefined) the Potency was “inactive”.
For `C/C(=N\NC(=S)NC1CCCCC1)c1ccc(Cl)c(Cl)c1`, the Potency was inconclusive: 6.31 µM [inhibitor, single point].
With `CSc1ccccc1OCc1cc(C(=O)NCCN2CCCc3ccccc32)no1` the Potency was inconclusive: 12.6 µM [inhibitor, partial curve].
With `N=c1c(S(=O)(=O)c2ccc(Cl)cc2)cc2c(=O)n3ccccc3nc2n1C1CCCC1` the Potency was inconclusive: 35.5 µM [inhibitor, single point].
For `COc1ccc(CNc2cccc(F)c2)cc1Br`, the Potency was inconclusive: 6.31 µM [inhibitor, single point].
In the case of `O=C(Nc1c(Cl)cccc1Cl)c1cc(=O)n(Cc2ccccc2)c(=O)[nH]1`, the Potency is reported as “inactive”.
In the case of `OCCOCCn1c(C2CCCN2c2nc(-c3ccc(F)cc3)cs2)nc2cc(Cl)c(Cl)cc21` (centres undefined), the Potency is reported as “inactive”.
For `COc1cc(OC)c2c(-c3ccccc3)cc(=O)oc2c1C(CCN1CCCC(C)C1)c1ccc2c(c1)OCO2` (centres undefined), the Potency was inconclusive: 20 µM [inhibitor, single point].
With `CCC(C)n1c(NC(=O)c2ccccc2)c(C#N)c2nc3ccccc3nc21` (centres undefined) the Potency was active: 31.6 µM.
With `COc1ccc(OC)c(Nc2nc(NCCC(C)C)nc(N)c2[N+](=O)[O-])c1` the Potency was inconclusive: 35.5 µM [inhibitor, partial curve, poor fit].
In the case of `O=C(CN1CCC(Cc2ccccc2)CC1)N1CCc2ccccc2C1`, the Potency is reported as “inactive”.
With `Cn1cccc1/C=N/NC(=O)c1ccncc1` the Potency was inconclusive: 35.5 µM [inhibitor, single point].
For `O=C(O)CN1C(=O)/C(=C\c2cc(Br)ccc2OCc2ccc([N+](=O)[O-])cc2)SC1=S`, the Potency was “inactive”.
For `COC(=O)c1ccc(S(=O)(=O)c2ccc(Cl)cc2)c(N)c1`, the Potency was “inactive”.
With `Cc1ccc2nc(-c3ccccn3)c(NC3CCCC3)n2c1` the Potency was active: 7.94 µM.
In the case of `COCCNC(=O)c1cc2c(-c3ccccc3F)nn(C)c2s1`, the Potency is reported as “inactive”.
For `CCOC(=O)CSc1nnc(NCC(=O)OC)c(=O)[nH]1`, the Potency was “inactive”.
For `COC(CNC(=O)c1coc2nc3ccccc3nc12)OC`, the Potency was inconclusive: 11.2 µM [inhibitor, single point].
With `COc1ccccc1Nc1c([N+](=O)[O-])cc(C)cc1[N+](=O)[O-]` the Potency was “inactive”.
In the case of `O=[N+]([O-])c1ccc(-c2cc(-c3ccc(Cl)cc3)n[nH]2)cc1`, the Potency is reported as inconclusive: 20 µM [inhibitor, single point].
